One sequence from article PMC5709413 can be followed below.

This data set concerns GST-BEX1. Nature of the data set: EMSA. As to conditions: recombinant BEX1-GST, stated not to act as site-specific RNA-binding factor to the ARE; 10 mM Tris-HCl, 50 mM KCl, 2.5 mM DTT, 0.25% Tween 20, pH 7.5, RNase inhibitor; 1 pmol probe; room temperature, 30 min; 5% native TBE gel; recombinant protein; protein details: GST; label: 5' Cy5. A general note: Mobility shift assays separate free from complexed probe on a gel.

For at least one entry, the source does not settle the construct or the ends of the probe. A negative result means that nothing was seen under these conditions.

On to “GCACUUAUUAUUUAUUAUUUAUUUAUUAUUUAUUUAUUUGCUUAUGAAUGUAUUUAUUUG [ARE-TNF-cy5]”, for which the binding result is listed as “no binding”.
